The list shows only some results of the screen, not a fair sample: it is rich in T/C values a quarter to a half above the control, in often repeated tests (any T/C) and in doses without a T/C. Other doses and runs of a compound stand elsewhere. T/C gives the treated animals as a percentage of the vehicle group. Some doses have a count of surviving animals in place of a T/C: the source holds a T/C of zero for them, seemingly a mark for toxic or unscored doses. Some survivor counts are full or nearly so, which does not show that the dose was tolerated: the source hardly ever lists a survival T/C far under the control, and the zero likely stands for such cases as well. Counts of survivors are from the toxicity check (mostly the fifth day) where no day follows; animals may have died later. Schedules are NCI's codes, read here as Q, the interval in days (D) or hours (H), X, the number of doses. Some doses were run more than once; their values stand side by side, smallest first. Where survival is the endpoint, the PubChem record calls one and a half times the control and up active, and a quarter to a half above the control has no call in these data; cut-offs in other NCI protocols can differ. Some T/C values carry the count of animals alive at the toxicity check (mostly the fifth day); without a count, all were alive then.
System: BDF1 mice, B16 melanoma ip, median survival T/C
Assay: NCI In Vivo Anticancer Drug Screen. Data for tumor model B16 Melanoma (intraperitoneal) in B6D2F1 (BDF1) mice
Conditions: T/C endpoint: median survival time, higher T/C = longer survival
Procedure, shortened: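 Survival or tumor size is measured after treatment of tumor-bearing mice and normalised to the vehicle-treated control group.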

[1] = dose: 50.0 mg/kg/injection, schedule: Q01DX009 (ip), vehicle: saline with Tween-80
[2] = dose: 100.0 mg/kg/injection, schedule: Q01DX009 (ip), vehicle: Klucel (hydroxypropylcellulose) (HPC)
[3] = dose: 200.0 mg/kg/injection, schedule: Q01DX009 (ip), vehicle: Klucel (hydroxypropylcellulose) (HPC)
[4] = dose: 400.0 mg/kg/injection, schedule: Q01DX009 (ip), vehicle: Klucel (hydroxypropylcellulose) (HPC)
[5] = dose: 100.0 mg/kg/injection, schedule: Q01DX009 (ip), vehicle: saline with Tween-80
[6] = dose: 200.0 mg/kg/injection, schedule: Q01DX009 (ip), vehicle: saline with Tween-80
[7] = dose: 50.0 mg/kg/injection, schedule: Q01DX009 (ip), vehicle: saline
[8] = dose: 25.0 mg/kg/injection, schedule: Q01DX009 (ip), vehicle: saline with Tween-80
[9] = dose: 50.0 mg/kg/injection, schedule: Q01DX009 (ip), vehicle: Klucel (hydroxypropylcellulose) (HPC)
[10] = dose: 400.0 mg/kg/injection, schedule: Q01DX009 (ip), vehicle: saline
[11] = dose: 12.5 mg/kg/injection, schedule: Q01DX001 (ip), vehicle: water
[12] = dose: 25.0 mg/kg/injection, schedule: Q04DX003 (ip), vehicle: saline

How did the survivor count (dose: 75.0 mg/kg/injection, schedule: Q01DX009 (ip), vehicle: saline with Tween-80) turn out when ClC1=C(Cl)C2(Cl)C(COc3ccc(Cl)cc3)CC1(Cl)C2(Cl)Cl (configuration not stated) was run?
The survivor count was 9 of 10.

And the survivor count (dose: 150.0 mg/kg/injection, schedule: Q01DX009 (ip), vehicle: saline with Tween-80)?
Its survivor count is 10 of 10.

And the survivor count (dose: 300.0 mg/kg/injection, schedule: Q01DX009 (ip), vehicle: saline with Tween-80)?
The survivor count was 0 of 10.

What does the source list for C[C@]12CCC(=O)C=C1CC[C@@H]1[C@@H]2C(=O)C[C@]2(C)C3=CC(=O)O[C@H]3C[C@@H]12?
survivor count [1]: 10 of 10; survivor count [2]: 0 of 6; survivor count [3]: 0 of 6; survivor count [4]: 0 of 6

N#Cc1ccc(/C=C/C(=O)c2ccccc2)cc1 was tested. Which survivor count [4] did it give?
Its survivor count is 10 of 10.

Which results are given for CCn1cnc2c(=S)nc[nH]c21?
survivor count [5]: 5 of 6; survivor count [6]: 6 of 6

Which survivor count [7] does the source give for CCCC(C(=O)OCCN(CC)CC)(c1ccccc1)c1ccccc1 here?
The survivor count was 10 of 10.

For CCCN(C)/N=N/c1nc[nH]c1C(N)=O, which T/C [8] is on record?
The T/C was 129 % of control.

What about the survivor count [5] of the same compound?
Its survivor count is 10 of 10.

What about the survivor count [6] of the same compound?
Its survivor count is 8 of 10.

CCN(CC)CCNc1ccc(C)c2sc3ccccc3c(=O)c12 was tested. Which survivor count (dose: 200.0 mg/kg/injection, schedule: Q01DX009 (ip), vehicle: suspension in saline) did it give?
Its survivor count is 10 of 10.

Which survivor count [1] does the source give for CCc1ccc(C2=C(O)C(=O)C(c3ccc(CC)cc3)=C(O)C2=O)cc1 here?
Its survivor count is 8 of 10 and 9 of 10.

And the survivor count [5]?
Its survivor count is 0 of 10 and 5 of 10.

For CCCC[P+](CCCC)(CCCC)C(C)C, which survivor count [1] is on record?
The survivor count was 4 of 10.

For CCCCCCC1N(Cc2ccccc2N(C)C)CCCN1Cc1ccccc1N(C)C, which survivor count (dose: 300.0 mg/kg/injection, schedule: Q01DX009 (ip), vehicle: saline) is on record?
The survivor count was 0 of 6.

With COC1C=CC23c4cc5c(cc4C(O)OC2CN(C)C3C1)OCO5 (configuration not stated) as the compound, how does the T/C [7] read?
The T/C was 131 % of control.

How did the survivor count [9] turn out when O=[N+]([O-])/C=C/c1ccc(Cl)cc1Cl was run?
Its survivor count is 10 of 10.

What about the survivor count [2] of the same compound?
Its survivor count is 10 of 10.

And the survivor count [3]?
Its survivor count is 0 of 10.

With NP(Cl)(c1ccccc1)(c1ccccc1)c1ccccc1 as the compound, how does the survivor count (dose: 0.2 mg/kg/injection, schedule: Q01DX009 (ip), vehicle: Klucel (hydroxypropylcellulose) (HPC)) read?
The survivor count was 9 of 10.

And the survivor count (dose: 0.78 mg/kg/injection, schedule: Q01DX009 (ip), vehicle: Klucel (hydroxypropylcellulose) (HPC))?
Its survivor count is 9 of 10.

With C=C1CCN(c2ccccc2Cl)C1=O as the compound, how does the T/C (dose: 64.0 mg/kg/injection, schedule: Q01DX009 (ip), vehicle: saline + alcohol) read?
The T/C was 128 % of control.

C=C1[C@@H](O)[C@]2(O)OC[C@@]34[C@H]1[C@@H](OC(=O)C(C)CC)C(=O)O[C@@H]3C[C@H]1C(C)=CC(=O)[C@@H](O)[C@]1(C)[C@@H]24 (some centres not stated) was tested. Which T/C (dose: 0.25 mg/kg/injection, schedule: Q01DX009 (ip), vehicle: saline with Tween-80) did it give?
The T/C was 127 % of control.

What about the T/C (dose: 2.0 mg/kg/injection, schedule: Q01DX009 (ip), vehicle: saline with Tween-80) of the same compound?
The T/C was 125 % of control.

How did the survivor count (dose: 6.25 mg/kg/injection, schedule: Q01DX009 (ip), vehicle: Klucel (hydroxypropylcellulose) (HPC)) turn out when N=C(N)c1nn(C2OC(CO)C(O)C2O)c2ncnc(N)c12 (configuration not stated) was run?
The survivor count was 10 of 10.

And the survivor count [9]?
The survivor count was 2 of 10.

CC(C)NCC(=O)c1ccc(O)c(O)c1 was tested. Which survivor count [10] did it give?
The survivor count was 10 of 10.

Which results are given for O=C1c2ccccc2-c2ncccc21?
survivor count [2]: 6 of 10; survivor count [3]: 0 of 10; survivor count [4]: 10 of 10

Which results are given for COc1cccc2c1C(=O)c1c(O)c3c(c(O)c1C2=O)C[C@@](O)(C(C)=O)C[C@@H]3OC1CC(N2CCC(OC)CC2)C(O)C(C)O1 (some centres not stated)?
T/C (dose: 1.56 mg/kg/injection, schedule: Q01DX001 (ip), vehicle: water): 127 % of control; T/C (dose: 3.12 mg/kg/injection, schedule: Q01DX001 (ip), vehicle: water): 133 and 137 % of control; T/C (dose: 6.25 mg/kg/injection, schedule: Q01DX001 (ip), vehicle: water): 140 % of control; T/C [11]: 145 % of control; survivor count [11]: 10 of 10; survivor count (dose: 25.0 mg/kg/injection, schedule: Q01DX001 (ip), vehicle: water): 1 of 10 and 5 of 10

For COc1ccc2cc1Oc1ccc(cc1)C[C@H]1c3cc(c(OC)cc3CCN1C)Oc1c(O)c(OC)cc3c1[C@H](C2)N(C)CC3, which survivor count (dose: 100.0 mg/kg/injection, schedule: Q01DX009 (ip), vehicle: acid diluted with saline) is on record?
The survivor count was 8 of 10.

What about the survivor count (dose: 200.0 mg/kg/injection, schedule: Q01DX009 (ip), vehicle: acid diluted with saline) of the same compound?
The survivor count was 1 of 10.

What about the survivor count (dose: 400.0 mg/kg/injection, schedule: Q01DX009 (ip), vehicle: acid diluted with saline) of the same compound?
The survivor count was 0 of 10.

For C/C(C/C(C)=N/O)=N/O.C/C(C/C(C)=N/O)=N\O.[Cl][Rh][Cl], which survivor count [8] is on record?
Its survivor count is 7 of 8.

For S=c1nc[nH]c2nc[nH]c12.[Ag], which T/C (dose: 600.0 mg/kg/injection, schedule: Q01DX009 (ip), vehicle: carboxymethylcellulose (CMC)) is on record?
The T/C was 125 % of control [5 of 6 alive].

How did the T/C [12] turn out when CN(C)N=C1CCCC1 was run?
Its T/C is 127 % of control.

What about the T/C (dose: 50.0 mg/kg/injection, schedule: Q04DX003 (ip), vehicle: saline) of the same compound?
Its T/C is 127 % of control.

What about the T/C (dose: 100.0 mg/kg/injection, schedule: Q04DX003 (ip), vehicle: saline) of the same compound?
Its T/C is 127 % of control.

Which survivor count (dose: 400.0 mg/kg/injection, schedule: Q01DX009 (ip), vehicle: saline with Tween-80) does the source give for O=C1C=C(c2ccccc2)C(O)(c2ccccc2)C1 (configuration not stated) here?
Its survivor count is 3 of 10.

Cc1cccc(NC(=O)c2ccc(Cl)cc2Cl)c1C was tested. Which survivor count [2] did it give?
Its survivor count is 10 of 10.

And the survivor count [3]?
Its survivor count is 9 of 9.

And the survivor count [4]?
Its survivor count is 10 of 10.

With Cc1ccc2c(c1)n([O-])c1cc(Cl)ccc1[n+]2=O as the compound, how does the T/C [8] read?
Its T/C is 129 % of control.

What about the T/C [1] of the same compound?
Its T/C is 146 % of control.

What about the survivor count [6] of the same compound?
Its survivor count is 2 of 10.

Which results are given for NC(=O)c1ccc(N)nc1?
T/C (dose: 0.75 mg/kg/injection, schedule: Q01DX009 (ip), vehicle: saline): 135 % of control; survivor count (dose: 3.0 mg/kg/injection, schedule: Q01DX009 (ip), vehicle: saline): 9 of 10; survivor count (dose: 4.0 mg/kg/injection, schedule: Q01DX009 (ip), vehicle: saline): 10 of 10; survivor count (dose: 6.0 mg/kg/injection, schedule: Q01DX009 (ip), vehicle: saline): 9 of 10; survivor count (dose: 8.0 mg/kg/injection, schedule: Q01DX009 (ip), vehicle: saline): 10 of 10; survivor count (dose: 12.0 mg/kg/injection, schedule: Q01DX009 (ip), vehicle: saline): 4 of 10; survivor count (dose: 12.5 mg/kg/injection, schedule: Q04DX003 (ip), vehicle: saline): 10 of 10; survivor count [12]: 10 of 10

With C(=N\Nc1nn[nH]n1)/c1ccncc1 as the compound, how does the survivor count [4] read?
The survivor count was 7 of 10.

CN(C)CCCN1c2ccccc2Sc2c(Cl)cc(Cl)cc21 was tested. Which survivor count [7] did it give?
The survivor count was 6 of 10.

Which results are given for O=[N+]([O-])/C=C/c1ccc([N+](=O)[O-])cc1Cl?
survivor count (dose: 1.5 mg/kg/injection, schedule: Q01DX009 (ip), vehicle: Klucel (hydroxypropylcellulose) (HPC)): 10 of 10; survivor count (dose: 3.0 mg/kg/injection, schedule: Q01DX009 (ip), vehicle: Klucel (hydroxypropylcellulose) (HPC)): 10 of 10; survivor count (dose: 25.0 mg/kg/injection, schedule: Q01DX009 (ip), vehicle: Klucel (hydroxypropylcellulose) (HPC)): 10 of 10; survivor count [9]: 10 of 10; survivor count [2]: 7 of 10

How did the survivor count (dose: 25.0 mg/kg/injection, schedule: Q01DX009 (ip), vehicle: saline) turn out when CN1C2CCC1CC(OC1c3ccccc3CCc3ccccc31)C2 (configuration not stated) was run?
Its survivor count is 8 of 10.

What about the survivor count [7] of the same compound?
Its survivor count is 8 of 10.

For COc1cc(/C=N/NC(=O)N/N=C/c2cc(OC)c(OC)c(OC)c2)cc(OC)c1OC, which survivor count [4] is on record?
The survivor count was 5 of 10.

What does the source list for ClC1=C(Cl)C2(Cl)C3C(Cl)C(Cl)CC3C1(Cl)C2(Cl)Cl (configuration not stated)?
survivor count [1]: 7 of 10; survivor count [5]: 9 of 10; survivor count [6]: 3 of 10

Which survivor count [10] does the source give for CCCCCC(C)(O)CCCCC here?
The survivor count was 8 of 10.

O=C1c2ccccc2C(=O)c2c(NCCN3CCNCC3)ccc(NCCN3CCNCC3)c21 was tested. Which survivor count (dose: 128.0 mg/kg/injection, schedule: Q01DX009 (ip), vehicle: acid diluted with saline) did it give?
The survivor count was 0 of 10.

N#C/C(=C\c1ccncc1)c1csc2ccccc12 was tested. Which survivor count [3] did it give?
Its survivor count is 9 of 10.

And the survivor count [4]?
Its survivor count is 10 of 10.

Which results are given for CCN(CC)CCOc1cc(C)ccc1C(C)C?
survivor count [2]: 6 of 10; survivor count [3]: 4 of 10
